Assay results from patent publication US11802258B2, “Perfume precursor” (TAKASAGO INTERNATIONAL CORPORATION, priority 2017, dated 2023).
At least one compound was matched to its structure with a doubt left.

Tested on: lipase preparation AY “Amano” 30SD
Assay: Lipase-induced scent emission test, lipase preparation AY “Amano” 30SD
Format: biochemical
Conditions: GC/MS head space peak area of scent-emitting compound minus water control; 10 mg fragrance precursor + 1 g aqueous 1% lipase preparation solution
Method: 10 mg of a fragrance precursor and 1 g of an aqueous 1% lipase preparation solution were put in a vial bottle and mixed and after hermetically sealing the bottle, the mixture was subjected to GC/MS analysis of the head space component to obtain a peak area of the scent-emitting compound. As a control, water was used in place of the aqueous 1% lipase preparation solution, and a peak area of the control was obtained by the same method. The scent emission amount was determined from the difference between the obtained peak area of the scent-emitting compound and the peak area of the control.
(GC/MS Measurement Conditions)
Measurement instrument: 7890GC/5975M (manufactured by Agilent Technologies) • Column: BC-WAX50 m×0.25 mm I.D. • Temperature rise: 70° C. to 220° C., 4° C./min • Split ratio: 60:1

CC(C)=CCC/C(C)=C/CC[C@H](C)CCOC(=O)c1ccc(C)cc1 [Example 9, (S,E)-3,7,11-trimethyl-6,10-dodecadienyl Toluate]
Scent Emission Amount: 19,259,897
